This is a selection; strong and weak results do not stand in their true shares.
Target: furin, P09958
Experiment: furin cleavage Z-score vs untreated control; higher = more cleavage, active = 3.5 or more, inactive = 1 or less, 8 variable residues between constant flanks
Summary of the method: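 In 50 mM HEPES pH 7.5 with CaCl2 and NaCl, purified furin was incubated with bead-anchored 8-mer peptide–cDNA fusions at 1:10 enzyme:substrate in 0.01 ml. Incubation times were 7.5, 15 and 30 min. DNA set free by cleavage was adapter-tagged by PCR and sequenced, with read counts taken as abundance. Log counts relative to furin-free reactions, after lowess adjustment and median absolute deviation scaling, form the cleavage Z-score.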

Chains of the proteins cited; added tags and fusions are not shown.
furin, P09958, UniProt P09958, whole entry: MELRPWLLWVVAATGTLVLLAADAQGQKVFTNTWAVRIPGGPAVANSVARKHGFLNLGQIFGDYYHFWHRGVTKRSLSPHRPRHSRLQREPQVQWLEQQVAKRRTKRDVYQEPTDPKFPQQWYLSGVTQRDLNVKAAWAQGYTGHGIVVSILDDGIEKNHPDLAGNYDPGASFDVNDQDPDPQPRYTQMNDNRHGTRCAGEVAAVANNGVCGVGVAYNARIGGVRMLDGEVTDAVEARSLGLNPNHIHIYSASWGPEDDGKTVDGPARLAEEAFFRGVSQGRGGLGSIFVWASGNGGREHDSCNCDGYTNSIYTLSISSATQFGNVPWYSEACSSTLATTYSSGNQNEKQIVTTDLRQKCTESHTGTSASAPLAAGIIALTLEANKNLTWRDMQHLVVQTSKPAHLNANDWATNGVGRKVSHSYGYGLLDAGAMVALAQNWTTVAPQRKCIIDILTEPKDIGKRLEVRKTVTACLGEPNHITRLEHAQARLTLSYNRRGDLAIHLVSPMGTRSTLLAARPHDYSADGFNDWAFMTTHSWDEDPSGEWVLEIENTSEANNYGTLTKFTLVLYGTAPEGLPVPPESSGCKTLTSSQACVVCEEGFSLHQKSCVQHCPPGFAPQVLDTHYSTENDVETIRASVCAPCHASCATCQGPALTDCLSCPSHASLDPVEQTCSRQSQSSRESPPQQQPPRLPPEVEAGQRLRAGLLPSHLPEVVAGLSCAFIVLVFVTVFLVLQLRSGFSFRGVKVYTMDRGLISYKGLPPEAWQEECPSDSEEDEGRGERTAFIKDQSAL

Sequence	furin cleavage Z-score (7.5 min)	furin cleavage Z-score (15 min)	furin cleavage Z-score (30 min)
CAQLSRAGRSAGNASASA [FS-81]	active: 6.21	active: 8.4	active: 8.08
CAHERRMKRFAGNASASA [FS-791]	active: 10	active: 11.5	active: 9.74
CARQRRSELGAGNASASA [FS-1917]	2.3	2.46	2.2
CARRQRLHRFAGNASASA [FS-919]	2.12	2.12	3.3
CAMWSGTFPIAGNASASA [HC1188]	1.39	1.22	1.33
CANFSRCKRGAGNASASA [FS-553]	2.22	2.06	2.15
CASSGCPERLAGNASASA [HC385]	inactive: -0.122	inactive: -0.598	inactive: 0.353
CAQKPRNKKSAGNASASA [FS-1151]	1.11	2.12	1.96
CAKKMRNKRNAGNASASA [FS-42]	active: 10.5	active: 10.9	active: 9.3
CAEVPCHRRSAGNASASA [HC2393]	1.85	1.7	1.09
CARVPRSVPRAGNASASA [FS-2103]	2.17	2.66	3.13
CALLFNILGGAGNASASA [HC1064]	inactive: -0.771	inactive: -1.63	inactive: -1.52
CATKLLLAVFAGNASASA [HC605]	1.92	3.24	inactive: 0.635
CAEVPCHRPRAGNASASA [HC2413]	2.06	1.28	1.44
CASTQRLRRGAGNASASA [FS-1169]	2.79	2.27	2.38
CAVGPRTCRNAGNASASA [HC1184]	2.39	3	2.94
CALTPCSAHLAGNASASA [HC2465]	2.29	1.86	1.34
CAGKRRSRRQAGNASASA [FS-1456]	active: 9.9	active: 10.6	active: 6.67
CAGTHRIMRDAGNASASA [FS-437]	1.29	1.53	2.69
CAPARRARRGAGNASASA [FS-470]	3.47	2.74	2.76

Random excerpt: 3 records from the list.
Sequence	furin cleavage Z-score (7.5 min)	furin cleavage Z-score (15 min)	furin cleavage Z-score (30 min)
CATKLLLAVFAGNASASA [HC605]	1.92	3.24	inactive: 0.635
CARVPRSVPRAGNASASA [FS-2103]	2.17	2.66	3.13
CASSGCPERLAGNASASA [HC385]	inactive: -0.122	inactive: -0.598	inactive: 0.353

(next part)

Sequence	furin cleavage Z-score (7.5 min)	furin cleavage Z-score (15 min)	furin cleavage Z-score (30 min)
CAKRLRRRREAGNASASA [FS-1224]	active: 6.7	active: 5.88	active: 4.7
CAKRRRSSKDAGNASASA [FS-344]	2.04	3.21	3.03
CAPGYPWPLYAGNASASA [HC200]	2.88	1.98	1.47
CAPSKRGNSTAGNASASA [FS-2877]	inactive: -0.745	inactive: -0.0005	inactive: 0.164
CAAAVTSPLTAGNASASA [HC1058]	inactive: 0.302	inactive: -1.38	inactive: -0.302
CAVKSRKRRKAGNASASA [FS-149]	active: 11	active: 11.7	active: 8.76
CASSNQLQRRAGNASASA [NG1]	inactive: 0.397	2.01	inactive: -0.568
CARQKRSINLAGNASASA [FS-2587]	active: 7.01	active: 6.9	active: 10.1
CAAGQRLRRDAGNASASA [FS-395]	active: 12	active: 10.2	active: 8.42
CASWLGNIIMAGNASASA [HC1574]	inactive: -0.174	inactive: -0.173	inactive: 0.459
CARQKRSIVVAGNASASA [FS-2507]	active: 7.83	active: 9.33	active: 8.84
CAEVVHSTWVAGNASASA [HC129]	inactive: -0.835	inactive: 0.0271	inactive: -0.684
CARCRRNKRIAGNASASA [FS-1649]	active: 4.5	active: 6.14	active: 4.22
CAAVSRTQRRAGNASASA [HC901]	1.01	3.13	3.08
CAAVVTSTWVAGNASASA [HC2143]	1.02	2.25	1.5
CAGCTTPCSGAGNASASA [HC1956]	inactive: -0.873	inactive: -0.658	inactive: -0.0577
CAAPARWPRSAGNASASA [FS-974]	active: 8.41	active: 5.86	active: 6.73
CAGGARRQRGAGNASASA [FS-1327]	1.44	1.28	1.75
CALRRLHQWIAGNASASA [HC1139]	1.13	1.26	2.5

Reference: the supplement of paper PMC3545927
